Results are given in words; binding and its absence hold for the method and conditions named. Binding seen in cells or lysates may run through a third protein. Binding can be weak; no strength is given. Where a sequence is shown, tags or fusion partners need not be part of it.
T1: CRYAB-mCherry (αB-crystallin fused to mCherry) (UniProt P02511)
T1 sequence: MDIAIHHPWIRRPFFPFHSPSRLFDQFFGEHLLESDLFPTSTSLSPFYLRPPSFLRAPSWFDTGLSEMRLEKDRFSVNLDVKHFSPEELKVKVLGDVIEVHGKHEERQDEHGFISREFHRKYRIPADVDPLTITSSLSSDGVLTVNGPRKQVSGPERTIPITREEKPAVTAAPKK

B1: LBH-eGFP (limb-bud and heart protein fused to eGFP) (protein, UniProt Q53QV2 1-105)
chain: MSIYFPIHCPDYLRSAKMTEVMMNTQPMEEIGLSPRKDGLSYQIFPDPSDFDRCCKLKDRLPSIVVEPTEGEVESGELRWPPEEFLVQEDEQDNCEETAKENKEQ

Tests used:
[1] = target: T1, CRYAB-mCherry (αB-crystallin fused to mCherry); test: FRET or BRET; sensitized emission (FRET-SE) in HUVECs co-transfected with an eGFP fusion (donor) and an mCherry fusion (acceptor); Leica SP8 confocal microscope; calibrated with negative control, donor only and acceptor only groups; compared with GFP-NC & mCherry-NC
[2] = target: VEGFA-mCherry (VEGFA165 fused to mCherry); test: as above

Molecule | binding [1] | binding [2]
VEGFA-eGFP (VEGFA165 fused to eGFP) | binds | –
B1 | – | binds
